Results deposited as PubChem BioAssay AID504804 (Drosophila RNAi Screening Center, 2011).
In all, the deposit lists about 19,000 reagents; below is a random part of those with a known target gene and a result. Of all reagents, 47 (0.25%) are marked active. 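Signals are raw, not normalised; exact z-scores behind calls not deposited; actives needed confirmation, so some wells reaching 2 SD are inactive.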 Unmarked entries are inactive.

- Screen: 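dsRNAs that improve Kc cell survival under doxorubicin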 (primary screen)
- Cell system: Drosophila Kc cells
- Knock-down reagent: long dsRNA against Drosophila genes, 0.5 µg dsRNA per well
- Timing: 96 h (48 h knock-down, then 48 h drug)
- Challenge: doxorubicin 5 µg/ml for 48 h, added 48 h after dsRNA
- Measured: 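Viability measured as cellular ATP by luminescence after 48 h knock-down then 48 h doxorubicin at 5 µg/ml; unnormalised plate counts for each replicate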
- Scale: raw ATP luminescence: higher = more viable cells, protection from doxorubicin
- Active means: 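Active when both duplicate wells lie at least 2 SD above the plate mean and protection is confirmed by rescreening and independent dsRNAs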

With scra [DRSC07679], what does the deposit list?
raw ATP luminescence, replicate 1: 83433; raw ATP luminescence, replicate 2: 69603

What is on record for CG4238 [DRSC00090]?
raw ATP luminescence, replicate 1: 2.83e5; raw ATP luminescence, replicate 2: 2.80e5

What is on record for Tnpo [DRSC11309]?
raw ATP luminescence, replicate 1: 29077; raw ATP luminescence, replicate 2: 29297

With CG11286 [DRSC14293], how do the results read?
raw ATP luminescence, replicate 1: 66713; raw ATP luminescence, replicate 2: 66000

For Cortactin [DRSC16612], what does the deposit list?
raw ATP luminescence, replicate 1: 42540; raw ATP luminescence, replicate 2: 45140

Laid out differently: results already given
{"gene": "CG4238", "DRSC id": "DRSC00090", "raw ATP luminescence, replicate 1": 2.83e5, "raw ATP luminescence, replicate 2": 2.80e5}
{"gene": "Tnpo", "DRSC id": "DRSC11309", "raw ATP luminescence, replicate 1": 29077, "raw ATP luminescence, replicate 2": 29297}

Further results follow.
With CG12279 [DRSC14495], what was measured?
raw ATP luminescence, replicate 1: 69510; raw ATP luminescence, replicate 2: 62890

How did the screen score Rh5 [DRSC03412]?
raw ATP luminescence, replicate 1: 94967; raw ATP luminescence, replicate 2: 67017

What did the screen give for CG15209 [DRSC19655]?
raw ATP luminescence, replicate 1: 3.68e5; raw ATP luminescence, replicate 2: 3.17e5

For CG1801 [DRSC20556], what does the deposit list?
raw ATP luminescence, replicate 1: 2.84e5; raw ATP luminescence, replicate 2: 3.06e5

How did the screen score CG15333 [DRSC18016]?
raw ATP luminescence, replicate 1: 28210; raw ATP luminescence, replicate 2: 39190

With CG15333 [DRSC18153], what was measured?
raw ATP luminescence, replicate 1: 27230; raw ATP luminescence, replicate 2: 35480

What did the screen give for CG13121 (retired record) [DRSC02217]?
raw ATP luminescence, replicate 1: 42043; raw ATP luminescence, replicate 2: 85073
